Values quoted from earlier work as cited in article PMC9096754 (Scientific Reports, 2022).

System: PKN2
Conditions: previously determined, cited from earlier work

In the case of `CCS(=O)(=O)N1CC(CC#N)(n2cc(-c3ncnc4[nH]ccc34)cn2)C1` [Baricitinib], the IC50 (read-out: IC50, PKN2) is given as 284 nM and the Kd (read-out: apparent dissociation constant [Kd app], PKN2) is given as 269 nM.
